Article doi:10.1101/2024.01.26.577166
Results are given in words; binding and its absence hold for the method and conditions named. Binding seen in cells or lysates may run through a third protein. Here binding means that the protein was enriched with, or labelled near, the bait; the list need not be complete. Tags and fused reporters may be left off the sequences shown.

The chains behind the UniProt entries cited, without tags or fusion partners. Where a name states a change or a piece, a line headed by the entry shows the natural chain unless it says otherwise.
UniProt Q9SJZ6: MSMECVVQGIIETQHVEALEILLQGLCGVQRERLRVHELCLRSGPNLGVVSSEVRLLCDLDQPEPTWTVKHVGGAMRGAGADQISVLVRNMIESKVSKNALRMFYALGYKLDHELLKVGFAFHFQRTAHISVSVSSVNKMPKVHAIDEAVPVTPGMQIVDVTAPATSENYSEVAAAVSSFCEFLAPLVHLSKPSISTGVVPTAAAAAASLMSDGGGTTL
UniProt Q4V3C1: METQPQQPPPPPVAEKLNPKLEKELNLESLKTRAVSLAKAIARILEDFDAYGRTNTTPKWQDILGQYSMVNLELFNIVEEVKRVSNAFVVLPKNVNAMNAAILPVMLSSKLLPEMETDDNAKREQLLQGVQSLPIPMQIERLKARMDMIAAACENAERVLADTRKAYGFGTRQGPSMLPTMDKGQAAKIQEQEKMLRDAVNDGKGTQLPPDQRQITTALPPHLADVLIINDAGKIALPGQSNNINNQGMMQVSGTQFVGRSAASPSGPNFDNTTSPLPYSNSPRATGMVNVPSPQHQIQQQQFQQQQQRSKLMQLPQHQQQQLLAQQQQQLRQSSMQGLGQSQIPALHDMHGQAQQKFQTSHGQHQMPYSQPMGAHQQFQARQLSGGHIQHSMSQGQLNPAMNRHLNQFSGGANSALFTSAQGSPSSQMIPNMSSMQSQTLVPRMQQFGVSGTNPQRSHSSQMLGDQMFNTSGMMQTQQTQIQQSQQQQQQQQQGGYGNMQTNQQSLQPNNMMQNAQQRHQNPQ
UniProt H3K2Y6: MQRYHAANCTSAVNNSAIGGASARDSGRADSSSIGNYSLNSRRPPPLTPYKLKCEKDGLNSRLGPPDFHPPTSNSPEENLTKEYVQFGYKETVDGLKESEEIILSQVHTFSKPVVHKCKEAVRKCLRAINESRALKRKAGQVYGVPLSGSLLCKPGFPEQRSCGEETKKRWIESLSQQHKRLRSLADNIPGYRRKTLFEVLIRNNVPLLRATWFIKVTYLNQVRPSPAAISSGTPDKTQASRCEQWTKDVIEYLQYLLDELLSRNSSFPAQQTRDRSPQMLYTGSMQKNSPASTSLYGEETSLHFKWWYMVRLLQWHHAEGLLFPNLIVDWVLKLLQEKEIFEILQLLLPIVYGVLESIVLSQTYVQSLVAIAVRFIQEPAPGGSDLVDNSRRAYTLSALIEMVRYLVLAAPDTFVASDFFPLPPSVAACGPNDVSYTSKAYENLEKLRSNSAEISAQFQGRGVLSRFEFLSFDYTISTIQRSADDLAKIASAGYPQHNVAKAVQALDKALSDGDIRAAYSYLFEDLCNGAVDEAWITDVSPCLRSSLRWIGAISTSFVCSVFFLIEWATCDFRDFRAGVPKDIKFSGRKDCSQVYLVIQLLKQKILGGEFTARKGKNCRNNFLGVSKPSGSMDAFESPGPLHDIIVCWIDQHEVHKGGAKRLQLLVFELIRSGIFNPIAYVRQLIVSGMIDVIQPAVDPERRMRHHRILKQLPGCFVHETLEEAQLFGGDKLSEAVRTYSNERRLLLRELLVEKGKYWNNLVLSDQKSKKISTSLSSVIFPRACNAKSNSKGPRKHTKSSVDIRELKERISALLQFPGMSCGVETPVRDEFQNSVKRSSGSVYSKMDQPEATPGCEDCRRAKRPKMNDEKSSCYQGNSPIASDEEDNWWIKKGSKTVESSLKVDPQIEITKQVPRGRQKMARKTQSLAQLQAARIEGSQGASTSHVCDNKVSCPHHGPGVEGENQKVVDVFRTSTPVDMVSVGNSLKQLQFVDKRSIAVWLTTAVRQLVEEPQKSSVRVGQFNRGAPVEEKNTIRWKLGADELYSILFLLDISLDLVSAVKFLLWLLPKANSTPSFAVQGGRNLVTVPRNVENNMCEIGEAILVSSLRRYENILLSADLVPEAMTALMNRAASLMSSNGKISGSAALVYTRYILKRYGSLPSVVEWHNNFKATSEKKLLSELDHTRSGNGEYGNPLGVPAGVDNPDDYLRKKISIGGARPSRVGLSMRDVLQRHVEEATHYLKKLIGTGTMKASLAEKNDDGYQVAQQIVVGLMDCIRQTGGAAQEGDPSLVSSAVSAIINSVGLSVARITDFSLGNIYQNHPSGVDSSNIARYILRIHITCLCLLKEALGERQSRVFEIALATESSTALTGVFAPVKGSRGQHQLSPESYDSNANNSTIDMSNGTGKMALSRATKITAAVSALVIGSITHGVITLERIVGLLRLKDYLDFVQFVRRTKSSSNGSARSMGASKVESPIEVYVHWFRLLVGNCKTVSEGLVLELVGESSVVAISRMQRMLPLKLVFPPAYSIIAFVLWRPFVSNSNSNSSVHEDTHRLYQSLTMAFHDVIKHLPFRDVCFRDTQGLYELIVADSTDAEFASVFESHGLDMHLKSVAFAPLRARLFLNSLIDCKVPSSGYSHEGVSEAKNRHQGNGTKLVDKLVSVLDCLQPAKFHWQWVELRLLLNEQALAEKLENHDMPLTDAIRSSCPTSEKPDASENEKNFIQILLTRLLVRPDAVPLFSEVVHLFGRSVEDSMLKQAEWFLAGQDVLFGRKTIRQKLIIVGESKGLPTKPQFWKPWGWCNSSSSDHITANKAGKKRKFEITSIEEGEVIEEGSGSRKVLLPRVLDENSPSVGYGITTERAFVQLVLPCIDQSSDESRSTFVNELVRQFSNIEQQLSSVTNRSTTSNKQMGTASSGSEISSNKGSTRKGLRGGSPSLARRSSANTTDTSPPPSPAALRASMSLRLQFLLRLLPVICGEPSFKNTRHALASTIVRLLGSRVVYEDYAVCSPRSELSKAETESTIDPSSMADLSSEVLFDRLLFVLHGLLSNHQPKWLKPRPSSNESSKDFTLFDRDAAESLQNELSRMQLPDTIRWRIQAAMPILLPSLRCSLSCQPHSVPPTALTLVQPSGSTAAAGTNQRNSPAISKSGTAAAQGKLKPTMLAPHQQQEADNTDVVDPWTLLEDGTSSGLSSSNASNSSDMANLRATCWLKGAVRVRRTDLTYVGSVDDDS
UniProt Q84VW5: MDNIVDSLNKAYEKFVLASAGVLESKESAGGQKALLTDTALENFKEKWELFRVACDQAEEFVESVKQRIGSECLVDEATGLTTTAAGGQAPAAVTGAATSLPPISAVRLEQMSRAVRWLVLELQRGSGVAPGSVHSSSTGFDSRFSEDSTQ
UniProt Q9FMV4: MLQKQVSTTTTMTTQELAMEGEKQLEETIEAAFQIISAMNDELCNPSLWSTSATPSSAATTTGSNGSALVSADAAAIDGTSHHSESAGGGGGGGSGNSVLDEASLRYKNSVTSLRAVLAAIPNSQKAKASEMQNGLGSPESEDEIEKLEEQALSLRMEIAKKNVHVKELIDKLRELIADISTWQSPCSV
UniProt Q8RWM3: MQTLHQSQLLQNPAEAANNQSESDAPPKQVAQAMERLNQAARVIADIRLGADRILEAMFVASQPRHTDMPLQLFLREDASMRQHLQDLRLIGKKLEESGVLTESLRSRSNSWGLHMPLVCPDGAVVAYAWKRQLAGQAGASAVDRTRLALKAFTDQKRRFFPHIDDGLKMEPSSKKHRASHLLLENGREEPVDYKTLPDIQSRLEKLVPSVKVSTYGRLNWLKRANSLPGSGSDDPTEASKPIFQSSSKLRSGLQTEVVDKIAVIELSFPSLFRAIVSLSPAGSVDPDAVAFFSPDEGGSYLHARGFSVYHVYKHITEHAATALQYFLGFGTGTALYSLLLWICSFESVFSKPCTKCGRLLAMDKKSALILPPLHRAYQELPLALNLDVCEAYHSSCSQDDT
UniProt Q8RWA2: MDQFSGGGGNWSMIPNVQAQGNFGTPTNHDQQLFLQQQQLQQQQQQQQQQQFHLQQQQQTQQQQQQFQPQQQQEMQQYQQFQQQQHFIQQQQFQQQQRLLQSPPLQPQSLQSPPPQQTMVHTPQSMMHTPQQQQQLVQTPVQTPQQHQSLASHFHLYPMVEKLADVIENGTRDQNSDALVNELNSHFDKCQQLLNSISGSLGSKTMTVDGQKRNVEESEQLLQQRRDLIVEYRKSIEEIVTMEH
UniProt F4JGZ1: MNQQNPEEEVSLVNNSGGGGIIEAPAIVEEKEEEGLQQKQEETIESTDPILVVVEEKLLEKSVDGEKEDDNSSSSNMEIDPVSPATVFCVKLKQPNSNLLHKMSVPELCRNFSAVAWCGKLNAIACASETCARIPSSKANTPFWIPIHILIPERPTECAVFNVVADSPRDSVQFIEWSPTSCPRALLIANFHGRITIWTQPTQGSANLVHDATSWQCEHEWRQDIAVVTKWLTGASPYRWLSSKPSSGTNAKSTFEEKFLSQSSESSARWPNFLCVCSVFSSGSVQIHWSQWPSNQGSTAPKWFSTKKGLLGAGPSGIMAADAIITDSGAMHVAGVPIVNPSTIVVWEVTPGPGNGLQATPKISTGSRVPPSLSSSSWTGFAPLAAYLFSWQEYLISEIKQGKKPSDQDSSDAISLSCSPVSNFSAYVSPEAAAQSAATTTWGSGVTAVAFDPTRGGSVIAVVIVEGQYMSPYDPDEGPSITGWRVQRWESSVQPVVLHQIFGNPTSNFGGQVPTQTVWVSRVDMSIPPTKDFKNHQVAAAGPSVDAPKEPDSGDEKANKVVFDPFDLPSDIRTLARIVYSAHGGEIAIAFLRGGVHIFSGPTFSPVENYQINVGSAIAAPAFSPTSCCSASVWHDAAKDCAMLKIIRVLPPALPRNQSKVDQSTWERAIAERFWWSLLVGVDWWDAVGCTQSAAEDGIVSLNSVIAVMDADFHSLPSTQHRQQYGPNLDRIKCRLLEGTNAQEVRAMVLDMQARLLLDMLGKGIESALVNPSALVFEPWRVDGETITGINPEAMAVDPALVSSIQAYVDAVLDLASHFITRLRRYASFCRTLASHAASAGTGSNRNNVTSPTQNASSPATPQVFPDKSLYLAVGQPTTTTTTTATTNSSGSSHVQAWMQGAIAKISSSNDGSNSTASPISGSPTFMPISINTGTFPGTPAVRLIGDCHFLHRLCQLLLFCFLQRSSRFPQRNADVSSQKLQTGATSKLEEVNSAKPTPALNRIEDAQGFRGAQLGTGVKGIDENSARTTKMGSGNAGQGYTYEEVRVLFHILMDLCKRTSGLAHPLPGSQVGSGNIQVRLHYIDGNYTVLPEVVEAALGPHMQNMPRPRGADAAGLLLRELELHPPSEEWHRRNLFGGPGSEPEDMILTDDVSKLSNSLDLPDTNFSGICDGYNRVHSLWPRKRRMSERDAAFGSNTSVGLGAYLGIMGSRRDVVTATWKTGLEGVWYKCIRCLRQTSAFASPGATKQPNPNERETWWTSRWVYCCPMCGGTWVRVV
UniProt Q9SD34: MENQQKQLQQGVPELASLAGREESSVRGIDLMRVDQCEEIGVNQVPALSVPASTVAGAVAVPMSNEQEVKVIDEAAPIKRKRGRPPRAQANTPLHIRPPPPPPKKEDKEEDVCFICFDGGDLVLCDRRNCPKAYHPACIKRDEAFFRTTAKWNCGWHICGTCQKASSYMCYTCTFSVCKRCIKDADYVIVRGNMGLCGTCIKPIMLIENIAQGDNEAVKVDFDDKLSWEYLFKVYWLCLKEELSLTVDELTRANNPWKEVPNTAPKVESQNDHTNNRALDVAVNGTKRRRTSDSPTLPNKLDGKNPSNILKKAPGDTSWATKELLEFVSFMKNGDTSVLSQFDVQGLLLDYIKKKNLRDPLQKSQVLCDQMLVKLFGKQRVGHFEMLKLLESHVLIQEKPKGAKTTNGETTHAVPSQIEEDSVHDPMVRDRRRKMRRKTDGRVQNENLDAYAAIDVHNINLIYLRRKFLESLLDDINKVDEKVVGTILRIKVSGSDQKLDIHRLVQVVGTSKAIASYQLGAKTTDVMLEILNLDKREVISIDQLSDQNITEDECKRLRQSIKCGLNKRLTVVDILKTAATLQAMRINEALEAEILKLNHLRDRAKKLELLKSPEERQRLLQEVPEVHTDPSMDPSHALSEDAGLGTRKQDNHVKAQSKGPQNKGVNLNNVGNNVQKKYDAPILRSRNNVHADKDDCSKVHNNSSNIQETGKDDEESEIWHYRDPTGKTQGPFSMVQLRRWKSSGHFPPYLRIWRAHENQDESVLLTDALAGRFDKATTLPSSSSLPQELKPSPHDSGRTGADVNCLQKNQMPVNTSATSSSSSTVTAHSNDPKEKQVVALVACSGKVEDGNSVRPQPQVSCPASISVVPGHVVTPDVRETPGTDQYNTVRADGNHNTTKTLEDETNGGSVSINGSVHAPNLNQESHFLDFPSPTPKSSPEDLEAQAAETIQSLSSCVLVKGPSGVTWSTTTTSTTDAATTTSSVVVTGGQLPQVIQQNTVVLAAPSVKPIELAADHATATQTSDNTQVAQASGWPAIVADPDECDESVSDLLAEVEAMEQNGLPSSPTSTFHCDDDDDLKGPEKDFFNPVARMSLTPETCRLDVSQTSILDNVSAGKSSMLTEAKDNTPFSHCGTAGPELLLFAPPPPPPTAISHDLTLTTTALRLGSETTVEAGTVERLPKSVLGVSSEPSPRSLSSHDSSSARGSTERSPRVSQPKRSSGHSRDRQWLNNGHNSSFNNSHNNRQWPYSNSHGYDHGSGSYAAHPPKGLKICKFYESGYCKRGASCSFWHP

T1: AtMED25-GFP (35S:AtMED25-GFP plants) (Arabidopsis thaliana) (UniProt Q7XYY2)
T1 sequence: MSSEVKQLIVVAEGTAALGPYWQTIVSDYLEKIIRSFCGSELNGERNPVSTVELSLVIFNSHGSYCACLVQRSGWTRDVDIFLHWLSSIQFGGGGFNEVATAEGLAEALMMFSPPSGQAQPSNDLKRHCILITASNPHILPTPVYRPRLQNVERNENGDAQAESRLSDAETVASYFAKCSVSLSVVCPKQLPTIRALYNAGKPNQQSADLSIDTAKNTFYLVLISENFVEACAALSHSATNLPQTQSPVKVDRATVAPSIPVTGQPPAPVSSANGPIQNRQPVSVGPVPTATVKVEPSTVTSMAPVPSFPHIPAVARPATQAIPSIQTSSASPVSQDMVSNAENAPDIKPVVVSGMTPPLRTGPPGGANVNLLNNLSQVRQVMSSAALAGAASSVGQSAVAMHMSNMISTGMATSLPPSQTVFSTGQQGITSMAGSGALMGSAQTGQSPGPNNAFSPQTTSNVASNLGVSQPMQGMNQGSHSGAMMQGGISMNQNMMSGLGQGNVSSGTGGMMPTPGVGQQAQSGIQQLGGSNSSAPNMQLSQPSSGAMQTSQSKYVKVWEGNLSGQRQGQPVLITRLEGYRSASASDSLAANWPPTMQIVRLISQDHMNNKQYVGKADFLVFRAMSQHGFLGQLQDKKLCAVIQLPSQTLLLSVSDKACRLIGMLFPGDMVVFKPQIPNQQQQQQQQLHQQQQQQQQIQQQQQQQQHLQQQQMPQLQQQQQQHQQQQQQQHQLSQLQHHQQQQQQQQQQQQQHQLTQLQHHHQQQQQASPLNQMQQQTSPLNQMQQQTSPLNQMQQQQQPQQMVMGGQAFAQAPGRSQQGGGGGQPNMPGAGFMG


Biological target: T1, AtMED25-GFP (35S:AtMED25-GFP plants) (Arabidopsis thaliana)
Assay: affinity purification with mass spectrometry

| Molecule | binding |
| --- | --- |
| AtMED18 (endogenous) (from UniProt Q9SJZ6) | binds |
| AtMED8 (endogenous) (from UniProt Q4V3C1) | binds |
| AtMED12 (endogenous) (from UniProt H3K2Y6) | binds |
| AtMED32 (endogenous) (from UniProt Q84VW5) | binds |
| AtMED30 (endogenous) (from UniProt Q9FMV4) | binds |
| AtMED3 (endogenous) (from UniProt Q8RWM3) | binds |
| AtMED9 (endogenous) (from UniProt Q8RWA2) | binds |
| ELKS1 (endogenous) | binds |
| AtMED16 (endogenous) (from UniProt F4JGZ1) | binds |
| C3H44 (endogenous) (from UniProt Q9SD34) | binds |
| ELKS2 (endogenous) | binds |
| AEL3 (endogenous) (from UniProt Q9SQR8) | binds |
| AtMED22A (endogenous) | binds |
| AtMED13 (endogenous) (from UniProt F4I096) | binds |
| CDKE (endogenous) (protein, UniProt Q84TI6 1-470) MGDGSSSRSNSSNSTSEKPEWLQQYNLVGKIGEGTYGLVFLARTKTPPKRPIAIKKFKQSKDGDGVSPTAIREIMLLREISHENVVKLVNVHINFADMSLYLAFDYAEYDLYEIIRHHRDKVGHSLNTYTVKSLLWQLLNGLNYLHSNWIIHRDLKPSNILVMGDAEEHGIVKIADFGLARIYQAPLKPLSDNGVVVTIWYRAPELLLGSKHYTSAVDMWAVGCIFAELLTLKPLFQGAEAKSSQNPFQLDQLDKIFKILGHPTMDKWPTLVNLPHWQNDVQHIQAHKYDSVGLHNVVHLNQKSPAYDLLSKMLEYDPLKRITASQALEHEYFRMDPLPGRNAFVASQPMEKNVNYPTRPVDTNTDFEGTTSINPPQAVAAGNVAGNMAGAHGMGSRSMPRPMVAHNMQRMQQSQGMMAYNFPAQAGLNPSVPLQQQRGMAQPHQQQQLRRKDPGMGMSGYAPPNKSRRL | binds |
| MBR1 (endogenous) (protein, UniProt Q9ZQF9 1-704) MNPMQGPRSIGGSSTEVNQVDGESIYCTETSLNTMLNPADTGFPNNSTPSGRPTYASSSSHAAQDHTWWRFGESSSIPGPSDQVNSIGIKTSHQLPQDGTHHFVGYGSEGRQTGLNGMMVDGGVHAGSHIRNVPSFLRGSSSNPMPQHVDMSMDMDSDNCNAQTSGVVIRHNSYGSSLGSSVQAAGESSSGPASPFGGWGSSCKRKALEGSPSHYFSGETPNRIVQTENSASHASLSQYGASSSLSLATPSQSSPNVTNHFGRTEQMFGSGGGRAVAASAFHSTRNTDTLSRAGRRLNPRQPQESVAFSVSHGGTSVRPTGSLQQNLPLNSPFVDPPDVRSSSITSGSNTGENQTNIVHLPALTRNIHQYAWDASFSSRASNPSGIGMPAERLGPQWETPRSNQEQPLFAPATDMRQPVHDLWNFARGSPGSSVDSLFVPRAGPSSAIHTPQPNPTWIPPQNAPPHNPSRTSELSPWSLFPSIESPSASHGGPLPLLPAGPSVSSNEVTMPSSSNSRSHRSRHRRSGLLLERQNELLHLRHIGRSLAADGNGRNQIISEIRQVLHAMRRGENLRVEDYMVFDPLIYQGMTDMHDRHREMRLDVDNMSYEELLALGERIGDVSTGLSEEVILKAMKQHKHTSSSPSSVELHQNIEPCCICQEEYVEGDNLGTLKCGHEFHKDCIKQWVMIKNLCPICKTEALKTP | binds |
| MBR2 (endogenous) (protein, UniProt O49500 1-666) MQGPRSTGDSSTGINYADGEPICSTNSETTSNNILNPVDVQFPNNTTGSGRPTYASSSSHVVQNHNWWSFGESSSRLGPSDHLNSNGSKTDRQLLSDGYGFEEGQSGMLLPGESFLRGSSSSHMLSHVNLGKDMDIGSGLQTSGVVIRHNNCETSLGSSSQTAEERSSGPGSSLGGLGSSCKRKALEGAPSHSFPGESHGCFFQTENGAWNEGLAQYDASSSLSLSMPSQNSPNVNNQSGLPEPRFGLGGGRAVTASAFPSTRSTETISRPGRRLNPGQPPESVAFSFTQSGSSVRQQQQLPATSPFVDPLDARAIPVTGSSSSGDGQPSMIHLPALTRNIHQFAWSASSSSRANSMPEEGLSPWDAPRINSEQPVFTTPANETRNPVQDQFCWSFTRGNPSTSGDSPFVPRAGSSSGIHGLQPNPTWVTPHNQSRISEVAPWSLFPSIESESATHGASLPLLPTGPSVSSNEAAAPSGSSSRSHRSRQRRSGLLLERQNDHLHLRHLGRSLAADNDGRNRLISEIRQVLSAMRRGENLRFEDYMVFDPLIYQGMAEMHDRHRDMRLDVDNMSYEELLALGERIGDVSTGLSEEVILKVMKQHKHTSSAAGSHQDMEPCCVCQEEYAEGDDLGTLGCGHEFHTACVKQWLMLKNLCPICKTVALST | binds |
| TOM1-LIKE 6 (endogenous) (protein, UniProt O80910 1-671) MASSSASATVAVDKATSDLLLGPDWTTNMEICDSVNSLHWQAKDVVKAVKKRLQHKSSRVQLLALTLLETLVKNCGDYLHHQVAEKNILGEMVKIVKKKADMQVRDKILVMVDSWQQAFGGPEGKYPQYYWAYDELRRSGVEFPRRSPDASPIITPPVSHPPLRQPQGGYGVPPAGYGVHQAGYGVPQAGYGIPQAGYGVPQAGYGIPQVGYGMPSGSSRRLDEAMATEVEGLSLSSIESMRDVMDLLGDMLQAVDPSDREAVKDEVIVDLVERCRSNQKKLMQMLTSTGDDELLGRGLDLNDSLQILLAKHDAIASGSPLPVQASGSPLSVQASKPADSSPKSSEAKDSSSIAGSSSPIPATVSTGKSPIDEEYEEEEDEFAQLARRHSKPPASVTTDPTSLESHNAASNALALALPDPPPPVNTTKEQDMIDLLSITLCTPSTPPAPSSQPSPPPPAGSDQNTHIYPQPQPRFDSYVAPWAQQQQPQQPQAQQGYSQHQQHQQQQGYSQPQHSQQQQGYSQLQQPQPQQGYSQSQPQAQVQMQPSTRPQNPYEYPPPPWASTSANAYYTPRANASASYTDTSALAGRSLQQSNSFPTRAGDPQATSTASNSGVSVGQKPFVPSYRLFEDLDVFGSADGKHNKPANSSNGSQNLSGSQTQQSMIGGRKMI | binds |
| AtMED21 (endogenous) (protein, UniProt C0LU16 1-139) MDIISQLQEQVNTIAAITFNAFGTLQRDAPPVQLSPNYPEPPATTTVTDDATPFPEQPKQLSAGLVKAAKQFDALVAALPLSEGGEGAQLKRIAELQVENDLVGQELQKQLEAAEKELKQVQELFGQAADNCLNMKKPE | binds |
| ATRBP45C (endogenous) (protein, UniProt Q93W34 1-415) MMQQPPPASNGAATGPGQIPSDQQAYLQQQQSWMMQHQQQQQGQPPAGWNQQSAPSSGQPQQQQYGGGGSQNPGSAGEIRSLWIGDLQPWMDENYLMNVFGLTGEATAAKVIRNKQNGYSEGYGFIEFVNHATAERNLQTYNGAPMPSSEQAFRLNWAQLGAGERRQAEGPEHTVFVGDLAPDVTDHMLTETFKAVYSSVKGAKVVNDRTTGRSKGYGFVRFADESEQIRAMTEMNGQYCSSRPMRTGPAANKKPLTMQPASYQNTQGNSGESDPTNTTIFVGAVDQSVTEDDLKSVFGQFGELVHVKIPAGKRCGFVQYANRACAEQALSVLNGTQLGGQSIRLSWGRSPSNKQTQPDQAQYGGGGGYYGYPPQGYEAYGYAPPPQDPNAYYGGYAGGGYGNYQQPGGYQQQQQ | binds |
